Measurements taken from paper PMC7371716.
Results are given in words; binding and its absence hold for the method and conditions named. Binding seen in cells or lysates may run through a third protein. Some binding calls cover weakened binding; strength is not graded here. Where a sequence is shown, tags or fusion partners need not be part of it.

How the values were obtained:
Assay in all cases: co-IP; lysates of transiently transfected HEK293 (legends: HEK293T) cells, 50 mM Tris-Cl pH7.4, 150 mM NaCl, 0.5 mM EDTA with 1% LMNG or 0.5% Triton x-100; GFP-tagged PDZD8 constructs precipitated on GFP-Trap agarose beads, 4 °C; western blot with anti-Protrudin or anti-Rab7
PDZD8ΔCC-GFP (1-1000) = target: T1, PDZD8ΔCC-GFP (1-1000) (UniProt Q8NEN9)
T1 sequence: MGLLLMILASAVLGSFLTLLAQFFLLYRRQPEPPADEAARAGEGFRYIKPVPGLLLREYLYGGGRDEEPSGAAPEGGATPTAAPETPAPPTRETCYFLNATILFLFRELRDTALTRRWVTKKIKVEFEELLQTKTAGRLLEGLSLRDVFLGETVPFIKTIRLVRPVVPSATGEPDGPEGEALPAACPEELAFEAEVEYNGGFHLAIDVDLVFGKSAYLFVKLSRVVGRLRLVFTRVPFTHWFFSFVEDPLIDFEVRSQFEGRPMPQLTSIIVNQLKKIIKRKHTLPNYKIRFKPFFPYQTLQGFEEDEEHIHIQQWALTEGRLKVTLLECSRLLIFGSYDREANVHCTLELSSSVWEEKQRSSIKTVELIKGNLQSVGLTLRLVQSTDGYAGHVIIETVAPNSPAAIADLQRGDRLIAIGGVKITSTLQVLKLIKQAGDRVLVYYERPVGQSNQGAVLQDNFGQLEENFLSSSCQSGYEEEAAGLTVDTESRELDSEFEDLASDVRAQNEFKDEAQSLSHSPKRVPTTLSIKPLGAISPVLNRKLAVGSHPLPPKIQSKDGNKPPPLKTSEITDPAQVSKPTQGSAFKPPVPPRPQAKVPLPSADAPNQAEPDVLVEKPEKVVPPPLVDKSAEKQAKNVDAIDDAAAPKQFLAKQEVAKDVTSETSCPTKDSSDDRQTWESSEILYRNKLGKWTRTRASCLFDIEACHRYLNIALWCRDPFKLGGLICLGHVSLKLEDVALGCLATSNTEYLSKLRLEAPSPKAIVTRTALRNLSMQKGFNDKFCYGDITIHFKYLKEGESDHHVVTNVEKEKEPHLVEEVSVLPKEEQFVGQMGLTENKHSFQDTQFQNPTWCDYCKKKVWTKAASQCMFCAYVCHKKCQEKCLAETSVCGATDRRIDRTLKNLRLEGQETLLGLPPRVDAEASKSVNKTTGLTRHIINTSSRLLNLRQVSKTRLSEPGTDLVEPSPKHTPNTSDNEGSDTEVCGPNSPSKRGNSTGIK

PDZD8 (1-300)-GFP = target: T2, PDZD8 (1-300)-GFP (UniProt Q8NEN9)
T2 sequence: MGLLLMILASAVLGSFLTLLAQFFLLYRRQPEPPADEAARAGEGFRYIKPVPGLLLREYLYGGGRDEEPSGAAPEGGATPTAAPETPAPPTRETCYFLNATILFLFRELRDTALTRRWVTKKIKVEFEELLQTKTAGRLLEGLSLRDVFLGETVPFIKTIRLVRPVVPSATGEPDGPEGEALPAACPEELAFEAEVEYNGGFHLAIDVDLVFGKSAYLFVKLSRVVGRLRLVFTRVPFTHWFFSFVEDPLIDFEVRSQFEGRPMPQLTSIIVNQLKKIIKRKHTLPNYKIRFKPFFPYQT

PDZD8-GFP (full length) = target: T3, PDZD8-GFP (full length) (UniProt Q8NEN9)
T3 sequence: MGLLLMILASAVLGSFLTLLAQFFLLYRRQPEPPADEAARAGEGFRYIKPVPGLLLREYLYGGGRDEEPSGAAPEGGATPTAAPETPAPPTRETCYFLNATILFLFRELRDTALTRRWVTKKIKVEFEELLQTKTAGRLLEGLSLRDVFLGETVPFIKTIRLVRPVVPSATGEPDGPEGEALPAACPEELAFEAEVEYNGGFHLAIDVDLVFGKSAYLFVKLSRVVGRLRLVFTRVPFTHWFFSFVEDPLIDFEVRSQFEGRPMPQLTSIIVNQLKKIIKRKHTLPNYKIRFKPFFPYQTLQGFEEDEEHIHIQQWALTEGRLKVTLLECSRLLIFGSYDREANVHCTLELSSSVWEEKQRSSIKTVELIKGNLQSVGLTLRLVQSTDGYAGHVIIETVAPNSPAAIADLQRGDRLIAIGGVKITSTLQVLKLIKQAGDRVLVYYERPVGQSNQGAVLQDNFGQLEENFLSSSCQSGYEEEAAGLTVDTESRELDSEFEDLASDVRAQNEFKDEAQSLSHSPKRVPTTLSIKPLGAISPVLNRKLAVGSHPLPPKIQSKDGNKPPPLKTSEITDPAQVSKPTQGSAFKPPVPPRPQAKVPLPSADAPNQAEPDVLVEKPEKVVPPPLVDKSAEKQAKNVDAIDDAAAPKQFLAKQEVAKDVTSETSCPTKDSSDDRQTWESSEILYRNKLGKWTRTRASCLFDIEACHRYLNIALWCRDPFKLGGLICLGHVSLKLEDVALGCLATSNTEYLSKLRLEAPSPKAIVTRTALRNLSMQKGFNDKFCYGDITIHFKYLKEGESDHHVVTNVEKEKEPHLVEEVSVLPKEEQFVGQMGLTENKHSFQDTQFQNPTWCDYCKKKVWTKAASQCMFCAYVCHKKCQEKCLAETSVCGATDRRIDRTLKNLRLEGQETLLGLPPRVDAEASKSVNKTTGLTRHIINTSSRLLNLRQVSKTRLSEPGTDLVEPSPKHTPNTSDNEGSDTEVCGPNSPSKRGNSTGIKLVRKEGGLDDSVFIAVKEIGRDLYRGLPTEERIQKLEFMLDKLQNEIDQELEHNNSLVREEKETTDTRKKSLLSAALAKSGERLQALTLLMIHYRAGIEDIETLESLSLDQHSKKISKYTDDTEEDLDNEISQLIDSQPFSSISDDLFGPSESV

binding (PDZD8ΔCC-GFP (1-1000)): binds
binding (PDZD8 (1-300)-GFP): binds
binding (PDZD8-GFP (full length)): binds
B1: Protrudin-mCherry (protein, UniProt Q5T4F4 1-411)
chain: MQTSEREGSGPELSPSVMPEAPLESPPFPTKSPAFDLFNLVLSYKRLEIYLEPLKDAGDGVRYLLRWQMPLCSLLTCLGLNVLFLTLNEGAWYSVGALMISVPALLGYLQEVCRARLPDSELMRRKYHSVRQEDLQRGRLSRPEAVAEVKSFLIQLEAFLSRLCCTCEAAYRVLHWENPVVSSQFYGALLGTVCMLYLLPLCWVLTLLNSTLFLGNVEFFRVVSEYRASLQQRMNPKQEEHAFESPPPPDVGGKDGLMDSTPALTPTEDLTPGSVEEAEEAEPDEEFKDAIEETHLVVLEDDEGAPCPAEDELALQDNGFLSKNEVLRSKVSRLTERLRKRYPTNNFGNCTGCSATFSVLKKRRSCSNCGNSFCSRCCSFKVPKSSMGATAPEAQRETVFVCASCNQTLSK
